Assay results reported in the supplement of paper PMC3334620.
The full ranking holds about 33,000 sequences; the median of “E-score (-0.5 to 0.5)” is about -0.015, and the highest 2% start at about 0.3. Some of the results follow.

These sequences were tested against T1, Abf1 (UniProt P14164) (assay: PBM E-score (8-mer binding enrichment) (E-score (-0.5 to 0.5)); higher = stronger / more preferred TF binding). Settings: protein concentration: 200 nM; construct: GST-full length.
T1 sequence: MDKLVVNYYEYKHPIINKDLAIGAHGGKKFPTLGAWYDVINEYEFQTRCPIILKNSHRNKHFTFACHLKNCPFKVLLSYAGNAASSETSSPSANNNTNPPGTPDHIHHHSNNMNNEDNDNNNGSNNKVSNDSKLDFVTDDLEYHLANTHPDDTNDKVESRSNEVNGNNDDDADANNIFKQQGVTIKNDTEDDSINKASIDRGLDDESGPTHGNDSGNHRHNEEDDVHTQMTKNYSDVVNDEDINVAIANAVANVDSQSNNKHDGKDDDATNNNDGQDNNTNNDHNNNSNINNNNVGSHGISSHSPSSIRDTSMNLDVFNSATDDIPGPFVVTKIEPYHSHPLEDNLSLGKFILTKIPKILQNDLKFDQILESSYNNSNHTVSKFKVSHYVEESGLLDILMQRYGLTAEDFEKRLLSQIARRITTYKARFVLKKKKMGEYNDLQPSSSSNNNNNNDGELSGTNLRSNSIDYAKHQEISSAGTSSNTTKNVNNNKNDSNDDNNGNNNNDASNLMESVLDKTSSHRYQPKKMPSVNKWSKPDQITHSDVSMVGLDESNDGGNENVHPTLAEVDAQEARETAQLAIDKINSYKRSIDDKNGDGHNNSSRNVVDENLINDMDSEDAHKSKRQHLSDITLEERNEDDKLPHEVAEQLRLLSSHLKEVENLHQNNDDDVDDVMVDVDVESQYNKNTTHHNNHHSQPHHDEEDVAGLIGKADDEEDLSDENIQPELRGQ
How it was run: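 Full-length yeast transcription factors or their DNA-binding domains, GST-tagged and expressed with PURExpress, were applied at about 100-200 nM to universal all-10-mer Agilent arrays. These arrays had been made double-stranded by primer extension on fresh or once-stripped slides. Detection used fluorescent anti-GST, normalisation used masliner, and E-scores for ungapped eight-base words pooled with reverse complements came from the Universal PBM Analysis Suite.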

Row | Sequence | PBM E-score
1 | CGGACTTA | -0.0103
2 | CAGCGTTA | 0.0527
3 | TAAATAAA | 0.251
4 | AGGTATGC | 0.0905
5 | AAGGGCGC | -0.126
6 | CCGGCCAC | -0.171
7 | ACTAAGTA | 0.151
8 | ATAGTGCG | -0.0459
9 | AACACGGA | 0.0732
10 | CATCTACC | -0.115
11 | AACAGACA | -0.0369
12 | AGATGCAA | -0.266
13 | AACAGCAG | 0.0461
14 | GACAGACC | -0.275
15 | CAATTCCG | 0.0515
16 | AGATTCTC | -0.146
17 | ATCACGAC | 0.363
18 | CGTATCAA | 0.343
19 | GCACTTGA | -0.047
20 | AACAATAG | -0.149
21 | CTGATCAG | 0.0203
22 | CACATGTC | 0.0654
23 | ACATAAGA | 0.0752
24 | ATTGTCGA | -0.0794
25 | AATGCAGG | 0.0257

Row | Sequence | PBM E-score
26 | TGATTCCA | -0.118
27 | ACACCTTA | -0.0258
28 | ATGCGCTC | -0.00982
29 | AGGTTGGC | -0.102
30 | GTGGCACA | -0.18
31 | ATGCGCCG | -0.00069
32 | CAGGAGCC | -0.235
33 | AGTGCGCA | 0.0615
34 | ACTACGAT | 0.146
35 | CTGGTTCC | -0.0717
36 | GCCGGCGC | -0.04
37 | CTTTTTTC | 0.0937
38 | CCGATGAA | -0.101
39 | TAGCCCGA | -0.0487
40 | AGTGTACC | -0.0969
41 | CACTTATG | 0.0685
42 | GACCCAGA | 0.0297
43 | CCCGAAGC | 0.0369
44 | TACTGCCA | -0.00789
45 | AGAGTCCT | -0.0999
46 | GATCCTGC | 0.0793
47 | ACCAGAGT | -0.31
48 | CGCGGGAG | -0.207
49 | TCTTCTCA | 0.0808
50 | ATTAAAAC | 0.0586

Row | Sequence | PBM E-score
51 | GCGCCAAC | -0.0968
52 | ACCGCGAT | 0.0301
53 | AGGCGATC | 0.061
54 | AAGATCCC | 0.096
55 | ATTACACA | 0.166
56 | GAGTTCAA | 0.086
57 | CCACATGC | -0.0677
58 | GGATGAGA | -0.0398
59 | CGTGGTGC | -0.278
60 | ATTGGTGA | 0.0539
61 | GGGCGGCA | -0.347
62 | CTGAATCC | -0.0583
63 | ACTTAGGG | 0.0866
64 | AAAGATTG | 0.0385
65 | CGGTTTGC | -0.0918
66 | CATGGTGC | -0.0453
67 | GTCATTTA | 0.313
68 | AGCCTCAG | -0.161
69 | AGGAATCG | 0.0975
70 | CCGAGCGG | -0.227
71 | AAGTTTAG | 0.0135
72 | CACCGCGC | 0.042
73 | AGGGTTTG | -0.2
74 | CGGTTTGA | -0.0256
75 | ATTCTGAA | 0.105

Row | Sequence | PBM E-score
76 | ATCACACG | 0.281
77 | CATCGTCC | 0.137
78 | GCGGCCGA | -0.0205
79 | CAGGAGCA | -0.118
80 | TAAATAGA | -0.0733
81 | AGCGACTG | -0.0361
82 | ACACAGCA | 0.148
83 | AAGACTGC | -0.209
84 | AAATACCT | 0.0896
85 | CCTATTGC | -0.169
86 | CGACCTGA | 0.104
87 | GATCCCAA | -0.0955
88 | GCATGGGA | -0.115
89 | AAATTCTC | 0.00746
90 | ACACTGGA | -0.0493
91 | GCTGTATA | -0.105
92 | AATCAGCG | 0.0737
93 | AACGCCGT | 0.23
94 | ACTAACTG | -0.0328
95 | GACATACA | 0.214
96 | ACCCTCGG | -0.249
97 | CATACTGA | -0.108
98 | CATGAGGG | -0.0568
99 | GCCAGAGA | -0.168
100 | CATTTGTC | 0.113

Excerpt, nos. 91–92
Row | Sequence | PBM E-score
91 | GCTGTATA | -0.105
92 | AATCAGCG | 0.0737

Carrying on.

Row | Sequence | PBM E-score
101 | GTAGAGGA | -0.0589
102 | AAGGAGGA | -0.14
103 | GCCACTGA | -0.224
104 | CCCTTGAG | -0.167
105 | ATAACTTC | 0.101
106 | GAAGGTTA | -0.152
107 | AACGTCTA | 0.0493
108 | GGAAAATA | 0.0544
109 | GAGCCTGA | -0.165
110 | CCATAACG | -0.0564
111 | ATTTCACG | 0.254
112 | AGACTAAG | 0.0756
113 | ATTGAATC | 0.101
114 | AGAGAAGG | -0.106
115 | CGGAACCC | -0.0317
116 | GAGCTTGA | -0.14
117 | ACCTGCTA | -0.0706
118 | AAGGTTTC | -0.0855
119 | GCCTGGAC | -0.0911
120 | AGTTGAGG | -0.116
121 | ACTTATCC | 0.11
122 | ATGGCGGG | -0.0731
123 | CGCTAGAA | -0.00445
124 | CGAGAGGC | -0.29
125 | ACCTACCA | -0.0533

A different layout for part of the listing above:
GAGCCTGA
  PBM E-score = -0.165
CCATAACG
  PBM E-score = -0.0564

Further results follow:

Row | Sequence | PBM E-score
126 | AGGTCGCG | 0.101
127 | GCGTCTAA | -0.113
128 | AAATACTC | 0.00717
129 | CGACTTCC | -0.109
130 | GCGCTTAA | -0.0286
131 | TCGTGGCA | 0.187
132 | CGGCAGCA | -0.108
133 | AGACAAGG | -0.0217
134 | GCCTTTCA | -0.01
135 | GGAGTCAC | -0.0676
136 | GTCCGCAA | -0.236
137 | ATGGCAGG | -0.192
138 | CGCAGCTC | -0.228
139 | ACTATGAA | 0.0687
140 | ATGGGCGA | -0.148
141 | CTCCTCAC | -0.0256
142 | GTAGTCCA | -0.078
143 | AAAGGGTC | 0.12
144 | AGGGCACG | -0.0317
145 | GCTATCGA | 0.0665
146 | GCGCGGCA | -0.0336
147 | TACCGTAA | 0.112
148 | TCAACACA | 0.14
149 | AGTCCAAT | 0.0467
150 | CTCAATAA | 0.0635

Row | Sequence | PBM E-score
151 | CAAGCGAC | 0.0372
152 | GCTTAGCA | -0.123
153 | ACTCATAG | -0.0845
154 | CCTCGGAA | 0.0529
155 | CCTCGTGC | 0.00335
156 | GCACTAGA | -0.064
157 | ATACGTTA | 0.224
158 | AACGATAG | 0.265
159 | CTAGCCCC | -0.26
160 | ATCAGAGC | 0.183
161 | ATAGTCCC | 0.00444
162 | ATCCGGAA | 0.0568
163 | AACGACAC | 0.238
164 | ACATGGAT | -0.0566
165 | AACTGCGT | -0.113
166 | AAAATTAT | 0.228
167 | CATCTTTA | 0.0861
168 | ACCCTCTA | 0.0207
169 | ATCTTCAT | 0.126
170 | GATGAACA | 0.0864
171 | CTTGTTTC | -0.101
172 | TTAACCAA | -0.117

Fetched one by one from the list above (two):
Row | Sequence | PBM E-score
152 | GCTTAGCA | -0.123
156 | GCACTAGA | -0.064
